For assay [1], the target named is monkey cMET (Cynomolgus Macaque) (Cynomolgus macaque (Macaca fascicularis)). In words: ELISA, species cross-reactivity (NHP).
Assay [2] has the same target. Nature of the assay: ELISA, antibody titrated on cMet of the named species, OD 450 nm.
Another assay deals with T1, human cMET (human, UniProt P08581 25-932, limits assumed).
T1 construct: also called hMET
The assay is described as above.

Chains of the proteins cited; added tags and fusions are not shown. Lines headed by an entry give the natural chain unless they say otherwise; changes in a name come on top.
UniProt P08581: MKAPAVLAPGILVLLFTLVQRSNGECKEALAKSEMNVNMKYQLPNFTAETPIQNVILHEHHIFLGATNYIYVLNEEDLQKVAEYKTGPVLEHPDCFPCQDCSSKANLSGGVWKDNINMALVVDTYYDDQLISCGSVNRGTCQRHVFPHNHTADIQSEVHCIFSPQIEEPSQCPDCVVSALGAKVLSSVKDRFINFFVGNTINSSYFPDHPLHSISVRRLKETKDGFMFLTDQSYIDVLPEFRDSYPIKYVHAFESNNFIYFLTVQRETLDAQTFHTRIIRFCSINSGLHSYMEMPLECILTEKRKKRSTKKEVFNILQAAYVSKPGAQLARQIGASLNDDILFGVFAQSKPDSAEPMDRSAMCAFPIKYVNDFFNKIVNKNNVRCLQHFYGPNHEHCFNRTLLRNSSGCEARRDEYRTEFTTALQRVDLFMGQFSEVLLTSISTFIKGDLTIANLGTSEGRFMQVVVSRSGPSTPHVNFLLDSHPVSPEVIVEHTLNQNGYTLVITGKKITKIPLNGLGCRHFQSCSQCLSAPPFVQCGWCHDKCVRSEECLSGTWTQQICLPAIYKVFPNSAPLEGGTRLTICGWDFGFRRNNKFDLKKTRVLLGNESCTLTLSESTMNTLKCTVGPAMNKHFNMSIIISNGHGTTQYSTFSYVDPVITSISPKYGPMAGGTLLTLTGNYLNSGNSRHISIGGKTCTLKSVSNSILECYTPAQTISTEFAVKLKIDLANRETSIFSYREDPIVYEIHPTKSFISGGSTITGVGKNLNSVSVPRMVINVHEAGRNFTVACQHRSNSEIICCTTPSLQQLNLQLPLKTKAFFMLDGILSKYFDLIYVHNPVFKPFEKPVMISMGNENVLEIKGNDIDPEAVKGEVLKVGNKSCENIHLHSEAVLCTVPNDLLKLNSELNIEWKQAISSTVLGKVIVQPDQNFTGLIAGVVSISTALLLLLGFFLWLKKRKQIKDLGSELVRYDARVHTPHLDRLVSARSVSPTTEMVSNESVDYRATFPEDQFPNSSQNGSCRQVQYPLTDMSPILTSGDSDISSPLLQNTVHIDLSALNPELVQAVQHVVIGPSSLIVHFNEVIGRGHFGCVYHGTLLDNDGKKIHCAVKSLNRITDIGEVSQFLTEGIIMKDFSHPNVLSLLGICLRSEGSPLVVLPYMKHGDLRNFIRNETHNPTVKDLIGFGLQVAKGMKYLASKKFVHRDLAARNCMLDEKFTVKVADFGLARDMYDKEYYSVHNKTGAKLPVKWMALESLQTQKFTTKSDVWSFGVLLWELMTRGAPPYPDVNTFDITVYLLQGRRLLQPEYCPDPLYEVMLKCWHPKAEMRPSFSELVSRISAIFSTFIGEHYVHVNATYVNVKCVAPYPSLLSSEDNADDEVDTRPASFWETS

These are yes or no findings as the source states them, for the method shown. Some entries that bind do so weakly or less than the wild type.

B1: F6B1P3D12 (antibody, V domains shown)
VH: QVQLQQSGAELAKPGASVKMSCRASGYTFTSYWMHWVKQRPGQGLDWIGYIKPSTDNTEYNQKFKDKATLTADKSSSTAYMQLSSLTSEDSAVYYCARSYGNYPLMDYWGQGTSVTVSS
VL: QIVLTQSPAIMSASPGEKVTLTCSASSSVTSNYLYWYQQKPGSSPKLWIYSTSNLASGVPARFSGSGSGTSYSLTISSMEAEDAASYFCHQWSSYPPTFGSGTKLEIKR
notes: Mouse monoclonal antibody from a hybridoma; also called Mouse P3D12; P3D12(mouse)
Consider B1, for which the binding result in assay [1] and in assay [2] was “binds” in each case.

B2: F6B1P1E2 (antibody, V domains shown)
VH: QVQLQQSGAELAKPGASVKMSCKASGYTFTSYWMHWVKQRPGQGLEWIGYINPSTDYTEYNQKFKDKATLTADKSSTTAYMQLSSLTSEDSAVYYCVRSYGNYPLMDYWGQGTSVTVSS
VL: QIVLTQSPAIMSASPGEKVTLTCSASSSVSSNYLYWYHQKPGSSPKLWIYSTSNLASGVPVRFSGSGSGTSYSLTISSMEAEDAASYFCHQWSSYPPTFGSGTKLEIKR
notes: Mouse monoclonal antibody
For B2, the binding entry in assay [1] and in assay [2] was “binds” in each case.

B3: F6BP2D4 (antibody, V domains shown)
VH: QVQLQQSGAELAKPGASVKMSCKASGYTFTSYWMHWVKQRPGQGLEWIGYINPSTDYIEYNQKFKDKATLTAGKSSSTAYMQLSSLTSEDSAVYYCARSYGNFPLMDYWGQGTSVTVSS
VL: QIVLTQSPAIMSASPGEKVTLTCSASSSVSSNYLYWYQQKPGSSPKLWIYSTSNLASGVPVRFSGSGSGTSYSLTISSMEAEDAASYFCHQWSSYPPTFGSGTKLEIKR
notes: Mouse monoclonal antibody
Regarding B3, the binding result in assay [1] and in assay [2] was “binds” each time.

B4: F6AP8E2 (antibody, V domains shown)
VH: EVQLQQSGAELVRPGALVKLSCKASGFNINDYFMHWVKQRPEQGLEWIGWIDPENGNTIYDPKFQGKASITADTSSNTAYLQLSSLTSEDTAVYYCARGGNYLRESYYYAMDYWGQGTSVTVSS
VL: DIVMTQSPKSMSMSVGERVTLSCKASENVGTYVSWYQQKPDQSPKLLIYGASNRYTGVPDRFTGSGSATDFTLTISSVQAEDLADYHCGQSYSYPLTFGAGTKLELKR
notes: Mouse monoclonal antibody
Regarding B4, the binding entry (in assay [1]; with human cMET; in assay [2]) was “binds” each time.

The values above are taken from US20190330354A1 (MITSUBISHI TANABE PHARMA, published 2019).
